Measured values from PubChem BioAssay (EPA / NIEHS).
“And” between values parts separate entries of the source, which are not always exact repeats. Equal entries are not always repeated. Inconclusive results, whose numbers are uncertain, are shown with a selection of clear calls. For part of these data: Potencies beside an inconclusive call are fits to weak or partial responses and may not hold up. More than one record can exist for a structure, and the calls need not agree. The source made the active and inactive calls. The calls were made as follows: active = hit-call score of the fitted dose curve at least 0.9, where 1 is the maximum; inconclusive = response in the unintended direction; inactive = score below 0.9.

Amino acid sequences for entries named in this document (tags omitted). A change or cut given only in a name is not applied to a line headed by its entry.
UniProt Q07869: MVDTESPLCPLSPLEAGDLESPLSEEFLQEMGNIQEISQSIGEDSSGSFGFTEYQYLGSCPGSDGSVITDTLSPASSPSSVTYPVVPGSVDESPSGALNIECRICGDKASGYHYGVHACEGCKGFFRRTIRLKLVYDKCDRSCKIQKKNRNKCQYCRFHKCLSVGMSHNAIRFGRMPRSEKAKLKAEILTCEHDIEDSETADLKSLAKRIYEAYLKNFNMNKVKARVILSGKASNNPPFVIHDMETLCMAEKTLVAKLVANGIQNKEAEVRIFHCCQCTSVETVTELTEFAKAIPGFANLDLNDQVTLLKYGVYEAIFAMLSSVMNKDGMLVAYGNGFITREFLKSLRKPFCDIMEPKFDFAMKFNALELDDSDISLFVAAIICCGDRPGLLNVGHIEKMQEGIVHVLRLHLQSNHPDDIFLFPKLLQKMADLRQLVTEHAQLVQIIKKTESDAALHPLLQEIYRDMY
UniProt P37231: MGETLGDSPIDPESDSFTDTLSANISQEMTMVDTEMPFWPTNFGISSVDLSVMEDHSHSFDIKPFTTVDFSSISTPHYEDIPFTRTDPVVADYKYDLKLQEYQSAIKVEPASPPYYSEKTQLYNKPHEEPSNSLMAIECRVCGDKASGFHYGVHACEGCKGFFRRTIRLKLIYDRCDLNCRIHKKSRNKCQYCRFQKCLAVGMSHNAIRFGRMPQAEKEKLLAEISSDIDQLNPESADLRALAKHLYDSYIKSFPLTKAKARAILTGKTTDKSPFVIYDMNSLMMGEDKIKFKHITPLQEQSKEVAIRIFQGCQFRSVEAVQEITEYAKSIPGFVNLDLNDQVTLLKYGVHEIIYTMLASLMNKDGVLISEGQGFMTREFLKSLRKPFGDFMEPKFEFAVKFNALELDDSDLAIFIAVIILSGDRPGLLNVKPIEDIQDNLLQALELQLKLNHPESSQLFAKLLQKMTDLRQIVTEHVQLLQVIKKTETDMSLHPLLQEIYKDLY
UniProt P10276, whole entry, looked up: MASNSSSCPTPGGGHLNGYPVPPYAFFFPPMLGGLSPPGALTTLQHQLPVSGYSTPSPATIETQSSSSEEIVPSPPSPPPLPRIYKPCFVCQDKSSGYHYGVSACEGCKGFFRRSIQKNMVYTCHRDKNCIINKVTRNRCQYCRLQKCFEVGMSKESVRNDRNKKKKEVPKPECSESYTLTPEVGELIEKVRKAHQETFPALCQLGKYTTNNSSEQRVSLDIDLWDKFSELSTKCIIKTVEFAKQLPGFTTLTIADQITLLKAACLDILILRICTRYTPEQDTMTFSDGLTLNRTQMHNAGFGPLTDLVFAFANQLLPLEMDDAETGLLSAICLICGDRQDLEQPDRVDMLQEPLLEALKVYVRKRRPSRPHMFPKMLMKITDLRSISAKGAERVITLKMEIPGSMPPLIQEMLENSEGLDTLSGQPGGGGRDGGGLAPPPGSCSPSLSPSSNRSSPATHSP
UniProt P06401: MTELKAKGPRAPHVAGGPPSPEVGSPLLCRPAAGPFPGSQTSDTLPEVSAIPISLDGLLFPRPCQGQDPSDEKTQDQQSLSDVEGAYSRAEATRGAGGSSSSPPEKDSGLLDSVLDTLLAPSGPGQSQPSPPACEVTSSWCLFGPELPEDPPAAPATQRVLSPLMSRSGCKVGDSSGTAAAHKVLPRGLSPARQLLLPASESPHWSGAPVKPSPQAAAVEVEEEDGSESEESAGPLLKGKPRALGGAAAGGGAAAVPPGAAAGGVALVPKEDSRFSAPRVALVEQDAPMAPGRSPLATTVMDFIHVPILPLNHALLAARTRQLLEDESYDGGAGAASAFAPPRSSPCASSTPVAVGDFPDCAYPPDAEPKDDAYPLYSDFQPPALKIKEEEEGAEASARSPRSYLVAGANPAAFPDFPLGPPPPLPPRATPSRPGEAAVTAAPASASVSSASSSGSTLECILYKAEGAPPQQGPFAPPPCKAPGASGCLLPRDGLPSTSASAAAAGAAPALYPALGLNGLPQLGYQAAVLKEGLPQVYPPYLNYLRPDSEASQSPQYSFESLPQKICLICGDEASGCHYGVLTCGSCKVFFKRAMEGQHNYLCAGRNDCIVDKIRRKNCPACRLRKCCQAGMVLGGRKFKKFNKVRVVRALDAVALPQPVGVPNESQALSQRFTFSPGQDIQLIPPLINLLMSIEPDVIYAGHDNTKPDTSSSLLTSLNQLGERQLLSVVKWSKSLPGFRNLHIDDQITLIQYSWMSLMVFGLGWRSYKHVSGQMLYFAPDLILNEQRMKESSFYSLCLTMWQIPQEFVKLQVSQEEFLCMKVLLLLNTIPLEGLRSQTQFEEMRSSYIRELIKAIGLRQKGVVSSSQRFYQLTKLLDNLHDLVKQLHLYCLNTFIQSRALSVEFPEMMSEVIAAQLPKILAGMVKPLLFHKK
UniProt O75469: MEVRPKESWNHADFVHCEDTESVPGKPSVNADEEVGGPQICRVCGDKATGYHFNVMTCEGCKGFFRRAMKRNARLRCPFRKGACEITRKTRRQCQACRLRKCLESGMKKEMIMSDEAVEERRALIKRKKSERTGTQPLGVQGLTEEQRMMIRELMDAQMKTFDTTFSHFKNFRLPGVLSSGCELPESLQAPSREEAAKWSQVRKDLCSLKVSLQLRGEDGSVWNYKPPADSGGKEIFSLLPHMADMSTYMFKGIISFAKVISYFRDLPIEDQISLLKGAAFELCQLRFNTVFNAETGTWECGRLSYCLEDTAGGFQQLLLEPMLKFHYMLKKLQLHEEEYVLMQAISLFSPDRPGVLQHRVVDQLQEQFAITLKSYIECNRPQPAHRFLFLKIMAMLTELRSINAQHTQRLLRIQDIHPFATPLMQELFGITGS
UniProt P10827: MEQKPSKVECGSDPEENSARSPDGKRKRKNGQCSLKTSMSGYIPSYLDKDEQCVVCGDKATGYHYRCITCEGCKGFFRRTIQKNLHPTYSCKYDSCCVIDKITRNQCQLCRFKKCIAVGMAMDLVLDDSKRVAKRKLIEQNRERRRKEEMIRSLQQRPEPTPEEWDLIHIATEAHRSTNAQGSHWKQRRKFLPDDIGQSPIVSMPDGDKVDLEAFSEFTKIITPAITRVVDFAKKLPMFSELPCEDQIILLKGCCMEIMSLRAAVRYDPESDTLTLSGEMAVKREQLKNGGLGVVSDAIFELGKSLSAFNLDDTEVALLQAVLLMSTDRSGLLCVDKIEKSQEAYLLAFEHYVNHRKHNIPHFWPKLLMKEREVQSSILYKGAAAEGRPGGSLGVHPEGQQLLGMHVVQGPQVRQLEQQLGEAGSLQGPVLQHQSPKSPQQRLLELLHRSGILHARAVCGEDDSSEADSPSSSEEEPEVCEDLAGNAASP
UniProt P23975, whole entry, looked up: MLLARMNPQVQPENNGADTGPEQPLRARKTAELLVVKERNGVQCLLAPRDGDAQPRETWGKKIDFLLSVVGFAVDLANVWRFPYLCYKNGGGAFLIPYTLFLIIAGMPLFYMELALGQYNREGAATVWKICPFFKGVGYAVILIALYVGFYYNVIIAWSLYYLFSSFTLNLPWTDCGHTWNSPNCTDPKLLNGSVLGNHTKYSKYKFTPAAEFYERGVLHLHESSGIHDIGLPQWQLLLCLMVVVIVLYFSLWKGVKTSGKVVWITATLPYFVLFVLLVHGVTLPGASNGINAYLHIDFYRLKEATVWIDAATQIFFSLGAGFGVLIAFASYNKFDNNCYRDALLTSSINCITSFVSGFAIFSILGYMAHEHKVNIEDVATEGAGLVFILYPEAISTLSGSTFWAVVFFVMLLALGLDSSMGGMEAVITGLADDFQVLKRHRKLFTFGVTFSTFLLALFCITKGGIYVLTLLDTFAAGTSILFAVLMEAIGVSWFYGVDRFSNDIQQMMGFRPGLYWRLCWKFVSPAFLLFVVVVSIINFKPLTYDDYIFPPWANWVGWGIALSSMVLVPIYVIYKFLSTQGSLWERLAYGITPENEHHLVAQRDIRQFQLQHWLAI

Key:
[1] = target: human Peroxisome Proliferator-activated Receptor alpha (PPARa), PPARA (gene 5465) (UniProt Q07869); experiment: NVS_NR_hPPARa: NovaScreen (NVS) Nuclear Receptor Binding Assay for human Peroxisome Proliferator-activated Receptor alpha (PPARa) (AID 2283359);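 also: activity means loss of TR-FRET signal versus DMSO baseline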
How it was run: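 One-hour incubation, cell-free extracted protein, TR-FRET binding readout; signal loss vs DMSO scored. Screen: 25 uM duplicates, confirmatory dose series for actives.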

[2] = target: Peroxisome proliferator-activated receptor gamma (Homo sapiens) (UniProt P37231); experiment: NVS_NR_hPPARg: NovaScreen (NVS) Nuclear Receptor Binding Assay for human Peroxisome Proliferator-activated Receptor gamma (PPARg) (AID 2283370)
How it was run: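 Chemicals were tested first in duplicate at 25 uM, then in concentration series if active. Binding to cell-free PPARg protein was measured by fluorescence polarization after 2 h, with loss of signal scored against DMSO.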

[3] = target: Retinoic acid receptor alpha (Homo sapiens) (UniProt P10276); experiment: NVS_NR_hRARa_Agonist: NovaScreen (NVS) Nuclear Receptor Binding Assay for human Retinoic Acid Alpha Receptor Agonism (RAR) (AID 2283361)
How it was run: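 Compounds screened at 25 uM, duplicate, then in concentration series if active. Detection: TR-FRET gain of signal versus DMSO after 2 h with cell-free extracted RARα.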

[4] = system: rat Norepinephrine Transporter (NET), gene 83511; experiment: NVS_TR_rNET: NovaScreen (NVS) Transporter Assay for rat Norepinephrine Transporter (NET) (AID 2283373)
How it was run: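 Competitive radioligand displacement at the rat NET using forebrain membrane preparations, 1 h incubation, filter-based scintillation readout. Primary testing in duplicate at a single 25 uM concentration; confirmed actives retested across concentrations.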

PGR (gene 5241) = PGR (gene 5241) (UniProt P06401); experiment: NVS_NR_hPR: NovaScreen (NVS) Nuclear Receptor Binding Assay for human Progestron Receptor (PR) (AID 2283360);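 also: active means loss of bound radioligand signal versus DMSO baseline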
How it was run: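 T47D lysate; tritiated or iodinated radioligand; scintillation count at 18 h. DMSO = negative control/baseline. Primary: 25 uM, duplicate. Secondary: concentration series for actives.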

[5] = target: Nuclear receptor subfamily 1 group I member 2 (Homo sapiens) (UniProt O75469); experiment: NVS_NR_hPXR: NovaScreen (NVS) Nuclear Receptor Binding Assay for human Pregnane X Receptor (PXR) (AID 2283365);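 also: a drop in FRET signal versus DMSO baseline means the compound binds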
How it was run: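 Human PXR protein, cell-free; compound added, incubated 2 h, TR-FRET read. Signal decrease vs DMSO = binding. Screened 25 uM duplicate, actives re-run as dilution series.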

[6] = target: human Thyroid Receptor Alpha (TRa), THRA (gene 7067) (UniProt P10827); experiment: NVS_NR_hTRa_Antagonist: NovaScreen (NVS) Nuclear Receptor Binding Assay for human Thyroid Receptor Alpha Antagonism (TRa) (AID 2283362);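 also: activity is loss of signal relative to DMSO baseline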
How it was run: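 Extracted protein, cell-free; 1 h incubation after dosing; AlphaLISA chemiluminescence binding readout. DMSO = baseline/neg ctrl; signal loss = activity. Primary: duplicate, 25 uM; secondary: conc. series on actives.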

[7] = target: Retinoic acid receptor alpha (Homo sapiens) (UniProt P10276); experiment: NVS_NR_hRAR_Antagonist: NovaScreen (NVS) Nuclear Receptor Binding Assay for human Retinoic Acid Alpha Receptor Antagonism (RAR) (AID 2283358)
How it was run: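 Chemicals were first tested in duplicate at 25 uM, then actives in concentration series, in a cell-free TR-FRET antagonist binding format. Measurements were taken 2 hours after dosing and loss of signal was evaluated against DMSO controls.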

[8] = target: human Norepinephrine Transporter (NET), SLC6A2 (gene 6530) (UniProt P23975); experiment: NVS_TR_hNET: NovaScreen (NVS) Transporter Assay for human Norepinephrine Transporter (NET) (AID 2283377);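 also: cell-free membrane protein extracted from CHO cells expressing human NET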
How it was run: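 In this cell-free binding screen, chemicals at 25 uM (duplicate) compete with a radioligand for CHO-derived human NET over 1 hour, with filter-based radiodetection.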

SMILES: O=C(O)C1(c2ccc3c(c2)OC[C@H](Cc2ccc(-c4ccccc4)cc2)[C@H]3O)CCCC1
- AC50 [1]: inconclusive: 43.7 µM
- AC50 [2]: inconclusive: 0.728 µM

SMILES: COc1cc(-c2ccc(N)c(OC)c2)ccc1N
- AC50 [1]: active: 14.1 µM
- outcome [3]: inactive
- AC50 [4]: inconclusive: 25 µM

SMILES: Oc1c(Br)cc(Br)cc1Br
- AC50 [1]: inconclusive: 25 µM

SMILES: CO/C=C(/C(=O)OC)c1ccccc1COc1cccc(C(F)(F)F)n1
- AC50 [1]: inconclusive: 2.77 µM

SMILES: O=[N+]([O-])/N=C1\NCCN1Cc1ccc(Cl)nc1
- AC50 (PGR (gene 5241)): inconclusive: 0.131 µM

SMILES: O=C(O)C(F)(F)C(F)(F)C(F)(F)C(F)(F)C(F)(F)C(F)(F)C(F)(F)C(F)(F)C(F)(F)F
- AC50 [1]: inconclusive: 25 µM
- AC50 [5]: active: 25 µM

SMILES: ClC(Cl)=C(c1ccc(Cl)cc1)c1ccc(Cl)cc1
- AC50 [1]: inconclusive: 163 nM and inconclusive: 25 µM
- outcome [6]: inactive

SMILES: CC(C)C(=O)OCC(C)(C)C(OC(=O)C(C)C)C(C)C (stereo not drawn)
- AC50 [7]: inconclusive: 25 µM
- AC50 [5]: inconclusive: 25 µM
- outcome [8]: inactive

SMILES: CCC[CH2][Sn]([CH2]CCC)([CH2]CCC)[CH2]CCC
- AC50 [1]: inconclusive: 0.251 µM
- AC50 [5]: inconclusive: 11.1 µM

SMILES: Cc1ccccc1OP(=O)(Oc1ccccc1)Oc1ccccc1
- outcome (PGR (gene 5241)): inactive
